This experiment concerns the target HSP70 (Arabidopsis (endogenous in Col-0, pad2.1 and AtECS1 plants)). Put plainly: co-IP; about 3 mg total protein of Col-0, pad2.1 and AtECS1 incubated overnight at 4 °C with protein A magnetic beads and rabbit polyclonal anti-HSP70 antibody; pellet washed three times; eluate blotted with rabbit polyclonal anti-GST phi antibody.

In paper PMC6022672 one finds binding data, which are given here for one molecule.

No constants are given. Whether binding was seen depends on the method and setting. Binding seen in cells or lysates may run through a third protein. A result given as binding can be weak or reduced; the word gives no strength.

B1: Glutathione-S-transferase F2 (protein, UniProt P46422 1-212)
chain: MAGIKVFGHPASIATRRVLIALHEKNLDFELVHVELKDGEHKKEPFLSRNPFGQVPAFEDGDLKLFESRAITQYIAHRYENQGTNLLQTDSKNISQYAIMAIGMQVEDHQFDPVASKLAFEQIFKSIYGLTTDEAVVAEEEAKLAKVLDVYEARLKEFKYLAGETFTLTDLHHIPAIQYLLGTPTKKLFTERPRVNEWVAEITKRPASEKVQ
Regarding B1, the binding entry is “binds”.
